Measurements as given in the supplement of paper PMC6411743.
± gives the standard deviation of the averaged measurements. The entries are a selection whose mix differs from that of the whole data set.

The chains behind the UniProt entries cited, without tags or fusion partners. Where a name states a change or a piece, a line headed by the entry shows the natural chain unless it says otherwise.
UniProt Q96IU4: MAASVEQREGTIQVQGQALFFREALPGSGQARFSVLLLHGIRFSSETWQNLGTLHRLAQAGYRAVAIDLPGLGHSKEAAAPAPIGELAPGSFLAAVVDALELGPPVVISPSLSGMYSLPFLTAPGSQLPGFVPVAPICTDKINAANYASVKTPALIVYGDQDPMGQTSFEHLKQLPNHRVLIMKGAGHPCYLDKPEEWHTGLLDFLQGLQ
UniProt Q96DP5: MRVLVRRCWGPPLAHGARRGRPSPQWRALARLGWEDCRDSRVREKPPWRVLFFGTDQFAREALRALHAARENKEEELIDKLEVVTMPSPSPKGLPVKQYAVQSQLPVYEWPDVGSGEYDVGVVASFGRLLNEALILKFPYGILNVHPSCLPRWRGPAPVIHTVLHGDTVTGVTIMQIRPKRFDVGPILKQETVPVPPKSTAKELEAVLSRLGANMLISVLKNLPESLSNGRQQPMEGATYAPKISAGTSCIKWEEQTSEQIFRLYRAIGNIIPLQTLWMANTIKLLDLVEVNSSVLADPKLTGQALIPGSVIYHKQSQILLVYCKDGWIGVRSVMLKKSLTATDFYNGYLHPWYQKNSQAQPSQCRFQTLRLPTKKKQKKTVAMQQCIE
UniProt Q96BR5: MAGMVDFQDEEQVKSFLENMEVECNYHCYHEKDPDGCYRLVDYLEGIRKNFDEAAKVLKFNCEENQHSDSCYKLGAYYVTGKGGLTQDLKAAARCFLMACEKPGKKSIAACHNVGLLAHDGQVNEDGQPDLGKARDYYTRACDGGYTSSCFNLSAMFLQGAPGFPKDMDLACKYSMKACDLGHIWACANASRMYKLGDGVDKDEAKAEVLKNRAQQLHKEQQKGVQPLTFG
UniProt Q96G74: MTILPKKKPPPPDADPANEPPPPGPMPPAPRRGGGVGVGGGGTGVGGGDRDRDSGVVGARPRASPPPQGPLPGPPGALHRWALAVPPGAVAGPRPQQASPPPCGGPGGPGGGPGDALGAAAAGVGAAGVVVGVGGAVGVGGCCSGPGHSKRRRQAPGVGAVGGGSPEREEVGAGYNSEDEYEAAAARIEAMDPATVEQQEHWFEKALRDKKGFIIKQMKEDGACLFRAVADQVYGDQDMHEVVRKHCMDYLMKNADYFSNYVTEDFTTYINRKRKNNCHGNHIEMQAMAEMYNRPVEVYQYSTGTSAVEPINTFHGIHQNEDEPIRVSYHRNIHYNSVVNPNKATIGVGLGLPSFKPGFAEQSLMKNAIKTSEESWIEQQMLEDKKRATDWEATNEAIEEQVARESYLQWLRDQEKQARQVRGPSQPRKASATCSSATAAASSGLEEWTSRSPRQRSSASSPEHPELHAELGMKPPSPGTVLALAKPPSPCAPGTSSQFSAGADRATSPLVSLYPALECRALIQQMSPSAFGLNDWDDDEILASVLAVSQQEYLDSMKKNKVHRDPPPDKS
UniProt Q96GK7: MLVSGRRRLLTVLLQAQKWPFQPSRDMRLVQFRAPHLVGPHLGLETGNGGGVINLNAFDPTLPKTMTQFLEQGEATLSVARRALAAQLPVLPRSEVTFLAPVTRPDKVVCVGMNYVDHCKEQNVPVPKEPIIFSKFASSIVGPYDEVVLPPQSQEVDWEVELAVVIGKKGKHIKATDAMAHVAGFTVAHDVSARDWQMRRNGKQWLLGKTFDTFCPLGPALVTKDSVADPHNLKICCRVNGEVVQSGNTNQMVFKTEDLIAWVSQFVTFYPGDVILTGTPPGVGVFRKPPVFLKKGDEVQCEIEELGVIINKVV
UniProt Q96SB8: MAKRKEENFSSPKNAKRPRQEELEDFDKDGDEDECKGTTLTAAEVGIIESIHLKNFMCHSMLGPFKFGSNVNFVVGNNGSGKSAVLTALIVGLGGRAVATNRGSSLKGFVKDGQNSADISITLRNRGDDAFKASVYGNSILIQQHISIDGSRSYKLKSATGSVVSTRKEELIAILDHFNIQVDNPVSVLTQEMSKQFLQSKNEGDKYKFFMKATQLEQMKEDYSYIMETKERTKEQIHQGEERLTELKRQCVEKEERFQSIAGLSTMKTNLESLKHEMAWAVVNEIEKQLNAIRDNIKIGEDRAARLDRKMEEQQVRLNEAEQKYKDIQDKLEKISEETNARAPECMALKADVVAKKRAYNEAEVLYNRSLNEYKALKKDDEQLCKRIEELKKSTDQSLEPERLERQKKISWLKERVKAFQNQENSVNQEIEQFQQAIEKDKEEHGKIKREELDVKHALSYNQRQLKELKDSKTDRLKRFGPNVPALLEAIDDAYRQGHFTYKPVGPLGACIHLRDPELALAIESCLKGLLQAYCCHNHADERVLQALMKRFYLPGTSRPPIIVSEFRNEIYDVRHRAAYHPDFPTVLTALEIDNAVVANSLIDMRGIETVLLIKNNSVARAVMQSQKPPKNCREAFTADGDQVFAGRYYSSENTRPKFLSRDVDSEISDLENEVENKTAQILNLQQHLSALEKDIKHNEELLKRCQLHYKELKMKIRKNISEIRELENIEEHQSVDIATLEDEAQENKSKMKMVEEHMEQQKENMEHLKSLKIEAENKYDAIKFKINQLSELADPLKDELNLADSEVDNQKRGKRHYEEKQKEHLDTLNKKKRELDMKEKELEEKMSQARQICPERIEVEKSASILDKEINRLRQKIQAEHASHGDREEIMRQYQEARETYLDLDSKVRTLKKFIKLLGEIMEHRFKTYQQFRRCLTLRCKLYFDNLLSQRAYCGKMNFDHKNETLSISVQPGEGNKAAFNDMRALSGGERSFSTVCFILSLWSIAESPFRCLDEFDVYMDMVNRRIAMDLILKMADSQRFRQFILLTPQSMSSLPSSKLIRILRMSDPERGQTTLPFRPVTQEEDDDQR
UniProt Q96BS2: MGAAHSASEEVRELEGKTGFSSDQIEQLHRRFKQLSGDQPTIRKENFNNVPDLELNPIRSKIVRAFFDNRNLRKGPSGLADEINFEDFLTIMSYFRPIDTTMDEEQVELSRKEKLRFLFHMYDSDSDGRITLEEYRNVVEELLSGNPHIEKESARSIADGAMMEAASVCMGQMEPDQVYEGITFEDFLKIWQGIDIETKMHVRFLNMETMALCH
UniProt Q96S90: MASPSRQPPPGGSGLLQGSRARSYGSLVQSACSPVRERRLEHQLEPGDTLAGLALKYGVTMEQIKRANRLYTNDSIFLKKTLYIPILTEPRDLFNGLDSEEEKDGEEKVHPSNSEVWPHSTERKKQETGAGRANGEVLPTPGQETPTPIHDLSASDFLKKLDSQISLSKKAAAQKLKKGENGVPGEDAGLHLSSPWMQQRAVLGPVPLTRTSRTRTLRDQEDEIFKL
UniProt Q96JB2: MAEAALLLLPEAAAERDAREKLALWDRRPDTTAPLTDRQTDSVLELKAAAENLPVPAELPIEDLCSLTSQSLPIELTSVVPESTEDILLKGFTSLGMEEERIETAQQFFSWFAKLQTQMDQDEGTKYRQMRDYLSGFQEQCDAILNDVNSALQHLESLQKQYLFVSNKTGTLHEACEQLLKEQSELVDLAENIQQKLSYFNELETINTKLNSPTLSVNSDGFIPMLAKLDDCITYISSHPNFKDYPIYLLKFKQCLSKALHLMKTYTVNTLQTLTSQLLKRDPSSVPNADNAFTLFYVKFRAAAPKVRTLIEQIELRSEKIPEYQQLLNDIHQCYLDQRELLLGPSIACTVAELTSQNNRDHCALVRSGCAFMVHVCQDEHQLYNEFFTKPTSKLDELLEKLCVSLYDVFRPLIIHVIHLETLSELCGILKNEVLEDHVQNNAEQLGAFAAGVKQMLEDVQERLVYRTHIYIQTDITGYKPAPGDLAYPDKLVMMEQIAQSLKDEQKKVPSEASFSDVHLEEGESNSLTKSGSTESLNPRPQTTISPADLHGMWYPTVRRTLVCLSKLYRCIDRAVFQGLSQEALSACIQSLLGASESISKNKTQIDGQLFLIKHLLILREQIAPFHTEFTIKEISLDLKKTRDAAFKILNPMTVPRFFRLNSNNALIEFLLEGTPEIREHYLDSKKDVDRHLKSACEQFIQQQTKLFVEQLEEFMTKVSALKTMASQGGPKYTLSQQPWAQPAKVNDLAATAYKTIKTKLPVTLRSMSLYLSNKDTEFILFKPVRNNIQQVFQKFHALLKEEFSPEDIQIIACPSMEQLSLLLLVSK
UniProt Q96G61: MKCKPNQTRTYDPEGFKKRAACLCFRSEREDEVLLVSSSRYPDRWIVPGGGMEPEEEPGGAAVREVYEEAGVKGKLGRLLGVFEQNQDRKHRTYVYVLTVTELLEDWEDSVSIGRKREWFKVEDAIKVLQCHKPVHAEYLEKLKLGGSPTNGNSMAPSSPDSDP
UniProt Q96EM0: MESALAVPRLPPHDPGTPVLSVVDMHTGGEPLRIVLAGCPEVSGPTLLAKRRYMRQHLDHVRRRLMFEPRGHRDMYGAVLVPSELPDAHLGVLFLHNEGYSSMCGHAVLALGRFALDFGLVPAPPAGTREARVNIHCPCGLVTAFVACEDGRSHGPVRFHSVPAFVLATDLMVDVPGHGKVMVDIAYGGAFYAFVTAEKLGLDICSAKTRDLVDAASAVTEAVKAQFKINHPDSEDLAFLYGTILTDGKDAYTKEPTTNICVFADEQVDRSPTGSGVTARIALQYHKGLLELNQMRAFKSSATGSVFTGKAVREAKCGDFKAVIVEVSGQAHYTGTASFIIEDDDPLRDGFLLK
UniProt Q96D05: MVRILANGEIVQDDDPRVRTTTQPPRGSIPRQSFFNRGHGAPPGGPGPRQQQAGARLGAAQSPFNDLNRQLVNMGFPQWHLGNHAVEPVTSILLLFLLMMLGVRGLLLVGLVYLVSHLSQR
UniProt Q96P50: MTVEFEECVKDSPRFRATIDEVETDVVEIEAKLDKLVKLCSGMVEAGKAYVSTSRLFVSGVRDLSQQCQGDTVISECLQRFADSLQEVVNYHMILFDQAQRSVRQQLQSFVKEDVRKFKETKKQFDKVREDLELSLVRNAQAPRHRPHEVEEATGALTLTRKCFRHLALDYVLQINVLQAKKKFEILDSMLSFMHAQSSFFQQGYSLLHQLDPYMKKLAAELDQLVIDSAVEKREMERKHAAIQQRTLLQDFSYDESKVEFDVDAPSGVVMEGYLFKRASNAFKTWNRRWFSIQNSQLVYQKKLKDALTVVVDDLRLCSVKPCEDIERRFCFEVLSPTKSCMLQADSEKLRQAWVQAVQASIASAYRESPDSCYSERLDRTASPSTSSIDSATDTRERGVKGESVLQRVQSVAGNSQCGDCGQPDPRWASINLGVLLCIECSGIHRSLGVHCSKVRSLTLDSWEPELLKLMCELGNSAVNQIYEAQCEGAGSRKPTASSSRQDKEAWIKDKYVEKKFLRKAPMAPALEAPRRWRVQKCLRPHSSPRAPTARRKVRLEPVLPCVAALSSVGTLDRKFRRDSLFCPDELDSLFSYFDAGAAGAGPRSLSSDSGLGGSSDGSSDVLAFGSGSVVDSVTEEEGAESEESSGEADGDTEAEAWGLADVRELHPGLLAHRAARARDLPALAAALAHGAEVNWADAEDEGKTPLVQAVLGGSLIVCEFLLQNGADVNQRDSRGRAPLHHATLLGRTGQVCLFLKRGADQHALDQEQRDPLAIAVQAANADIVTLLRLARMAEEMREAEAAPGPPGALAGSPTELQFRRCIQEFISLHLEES

Compound: Nc1ncnc2c1ncn2[C@@H]1O[C@H](COP(=O)(O)OP(=O)(O)OP(=O)(O)O)[C@@H](O)[C@H]1O [adenosine triphosphate]
Assay: NP40-soluble protein abundance relative to vehicle (solubility fold change) (ratio); higher = more soluble protein in presence of ATP
How it was run: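 Across three independent experiments, values are fold changes against the detergent-processed vehicle for each replicate, based on vsn-normalised intensities. The samples were Jurkat crude lysate treated with eight concentrations (0.1 to 10 mM) for 10 min at room temperature and then 3 min at 37 °C. Lysate was solubilised with 0.8% NP40 and benzonase, ultracentrifuged, and the supernatant analysed by TMT-labelled LC-MS/MS.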

Target	NP40-soluble protein abundance (concentration: 1mM)	NP40-soluble protein abundance (concentration: 2mM)	NP40-soluble protein abundance (concentration: 4mM)	NP40-soluble protein abundance (concentration: 6mM)	NP40-soluble protein abundance (concentration: 8mM)	NP40-soluble protein abundance (concentration: 10mM)
UniProt Q96MT7-2	0.984 ± 0.1	0.971 ± 0.06	1.08 ± 0.2	1.05 ± 0.22	1.04 ± 0.14	0.979 ± 0.074
UniProt Q96BN8	0.944 ± 0.031	0.936 ± 0.017	0.949 ± 0.03	0.885 ± 0.065	0.9266 ± 0.0065	0.921 ± 0.01
UniProt Q96IU4 and related entries	0.971 ± 0.042	0.947 ± 0.02	0.927 ± 0.017	0.933 ± 0.051	0.916 ± 0.03	0.919 ± 0.013
UniProt Q96PU5 and related entries	0.901 ± 0.074	0.937 ± 0.052	0.974 ± 0.065	0.882 ± 0.051	0.957 ± 0.046	0.959 ± 0.075
PRMT6 (UniProt Q96LA8)	0.984 ± 0.073	0.9612 ± 0.0025	0.967 ± 0.026	0.988 ± 0.12	0.932 ± 0.11	1 ± 0.031
MTFMT (UniProt Q96DP5)	1.12 ± 0.12	1.132 ± 0.00096	1.14 ± 0.06	1.09 ± 0.2	1.17 ± 0.044	1.21 ± 0.16
UniProt Q96P48 and related entries	1.03 ± 0.085	1.02 ± 0.086	1.02 ± 0.039	0.95 ± 0.082	1.03 ± 0.02	1 ± 0.055
ATG2B (UniProt Q96BY7)	0.864 ± 0.036	0.894 ± 0.034	0.991 ± 0.026	1.06 ± 0.041	1.07 ± 0.019	1.09 ± 0.055
HSPBAP1 (UniProt Q96EW2)	0.947 ± 0.085	0.931 ± 0.034	0.902 ± 0.012	1.01 ± 0.1	1.02 ± 0.2	0.897 ± 0.027
FAM122A (UniProt Q96E09)	1.01 ± 0.15	0.954 ± 0.057	0.965 ± 0.077	0.955 ± 0.12	0.999 ± 0.16	1 ± 0.089
UniProt Q96PM5 and related entries	1.02 ± 0.055	1.04 ± 0.037	1.03 ± 0.062	1.03 ± 0.07	1.01 ± 0.051	1.01 ± 0.052
UniProt Q96BR5	0.946 ± 0.022	0.975 ± 0.019	0.971 ± 0.033	0.9869 ± 0.0064	0.949 ± 0.036	0.972 ± 0.041
NSUN4 (UniProt Q96CB9)	1.01 ± 0.17	1.02 ± 0.13	1.09 ± 0.13	1.06 ± 0.17	1.19 ± 0.12	1.26 ± 0.11
UniProt Q96SK2 and related entries	1.06 ± 0.044	1.04 ± 0.051	1.1 ± 0.078	1.15 ± 0.046	1.17 ± 0.026	1.2 ± 0.054
UniProt Q96G74 and related entries	0.991 ± 0.037	1 ± 0.024	1.02 ± 0.017	1.05 ± 0.017	0.972 ± 0.013	1.02 ± 0.057
ZFP91 (UniProt Q96JP5)	1.01 ± 0.032	1.03 ± 0.064	1 ± 0.057	0.988 ± 0.021	0.994 ± 0.074	0.96 ± 0.028
FAHD2A (UniProt Q96GK7)	1.03 ± 0.014	1.04 ± 0.014	1.012 ± 0.0076	1 ± 0.048	1 ± 0.014	0.985 ± 0.015
PAWR (UniProt Q96IZ0)	0.964 ± 0.066	0.98 ± 0.012	0.984 ± 0.035	1.02 ± 0.035	0.965 ± 0.052	0.927 ± 0.069
UniProt Q96JG6	1 ± 0.08	1 ± 0.024	0.993 ± 0.053	0.967 ± 0.084	0.993 ± 0.05	0.996 ± 0.029
UniProt Q96DA6 and related entries	0.956 ± 0.072	0.983 ± 0.071	0.969 ± 0.051	0.971 ± 0.11	0.992 ± 0.044	0.92 ± 0.068

Random excerpt: 2 entries already listed.
Target	NP40-soluble protein abundance (concentration: 1mM)	NP40-soluble protein abundance (concentration: 2mM)	NP40-soluble protein abundance (concentration: 4mM)	NP40-soluble protein abundance (concentration: 6mM)	NP40-soluble protein abundance (concentration: 8mM)	NP40-soluble protein abundance (concentration: 10mM)
PAWR (UniProt Q96IZ0)	0.964 ± 0.066	0.98 ± 0.012	0.984 ± 0.035	1.02 ± 0.035	0.965 ± 0.052	0.927 ± 0.069
HSPBAP1 (UniProt Q96EW2)	0.947 ± 0.085	0.931 ± 0.034	0.902 ± 0.012	1.01 ± 0.1	1.02 ± 0.2	0.897 ± 0.027

Further results

Target	NP40-soluble protein abundance (concentration: 1mM)	NP40-soluble protein abundance (concentration: 2mM)	NP40-soluble protein abundance (concentration: 4mM)	NP40-soluble protein abundance (concentration: 6mM)	NP40-soluble protein abundance (concentration: 8mM)	NP40-soluble protein abundance (concentration: 10mM)
UniProt Q96EV8 and related entries	0.971 ± 0.024	0.962 ± 0.026	0.9673 ± 0.0042	0.981 ± 0.047	0.951 ± 0.018	0.923 ± 0.041
EAF1 (UniProt Q96JC9)	0.936 ± 0.08	0.92 ± 0.042	0.879 ± 0.043	0.966 ± 0.11	0.868 ± 0.048	0.863 ± 0.018
UniProt Q96SB8 and related entries	1.03 ± 0.029	1.04 ± 0.022	1.04 ± 0.014	1.05 ± 0.026	1.05 ± 0.027	1.03 ± 0.019
PRRC1 (UniProt Q96M27)	0.919 ± 0.033	0.962 ± 0.016	0.91 ± 0.033	0.942 ± 0.03	0.8972 ± 0.0037	0.918 ± 0.034
UniProt Q96NC0	1.03 ± 0.063	1.06 ± 0.032	1.05 ± 0.028	1.12 ± 0.025	1.06 ± 0.024	1.11 ± 0.056
UniProt Q96RL7-4|Q96RL7 and related entries	1.05 ± 0.077	1.03 ± 0.074	1.06 ± 0.084	0.968 ± 0.089	1.06 ± 0.048	1.02 ± 0.061
ZC3HAV1L (UniProt Q96H79)	1 ± 0.081	0.983 ± 0.021	0.971 ± 0.037	0.975 ± 0.041	0.954 ± 0.05	0.968 ± 0.051
UniProt Q96G23	0.896 ± 0.062	0.962 ± 0.035	0.951 ± 0.034	0.89 ± 0.1	0.948 ± 0.036	0.978 ± 0.041
UniProt Q96S19 and related entries	1 ± 0.026	0.996 ± 0.042	1.01 ± 0.042	0.95 ± 0.064	0.987 ± 0.048	0.968 ± 0.083
WDYHV1 (UniProt Q96HA8)	0.936 ± 0.081	0.942 ± 0.053	0.883 ± 0.022	0.888 ± 0.1	0.935 ± 0.02	0.913 ± 0.035
DHTKD1 (UniProt Q96HY7)	1.06 ± 0.08	1.02 ± 0.078	1.04 ± 0.066	0.989 ± 0.068	1.06 ± 0.081	1.01 ± 0.017
REEP6 (UniProt Q96HR9)	0.908 ± 0.12	0.994 ± 0.028	0.978 ± 0.059	0.987 ± 0.029	1.02 ± 0.021	1.02 ± 0.023
UniProt Q96BS2 and related entries	0.984 ± 0.026	1.07 ± 0.075	0.975 ± 0.15	0.989 ± 0.059	0.982 ± 0.04	0.986 ± 0.05
UniProt Q96BN2	0.97 ± 0.027	1.05 ± 0.043	1.05 ± 0.045	1.05 ± 0.067	1.07 ± 0.049	1.05 ± 0.055
RBMXL1 (UniProt Q96E39)	1.1 ± 0.069	1.2 ± 0.013	1.35 ± 0.039	1.461 ± 0.0086	1.56 ± 0.02	1.66 ± 0.095
SGTB (UniProt Q96EQ0)	0.944 ± 0.2	0.915 ± 0.13	0.918 ± 0.11	0.915 ± 0.1	0.867 ± 0.11	0.797 ± 0.17
FUBP3 (UniProt Q96I24)	0.974 ± 0.033	0.952 ± 0.015	0.945 ± 0.034	0.977 ± 0.014	0.941 ± 0.015	0.926 ± 0.011
UniProt Q96QZ7 and related entries	1.12 ± 0.18	1.19 ± 0.084	1.26 ± 0.059	1.26 ± 0.068	1.21 ± 0.2	1.3 ± 0.21
ALKBH3 (UniProt Q96Q83)	0.986 ± 0.028	1.01 ± 0.013	1.02 ± 0.018	1 ± 0.052	1 ± 0.042	1.01 ± 0.065
UniProt Q96EY5	1.01 ± 0.05	1.045 ± 0.0099	1.06 ± 0.028	1.01 ± 0.038	1.06 ± 0.046	1.04 ± 0.026

Target	NP40-soluble protein abundance (concentration: 1mM)	NP40-soluble protein abundance (concentration: 2mM)	NP40-soluble protein abundance (concentration: 4mM)	NP40-soluble protein abundance (concentration: 6mM)	NP40-soluble protein abundance (concentration: 8mM)	NP40-soluble protein abundance (concentration: 10mM)
UniProt Q96HD1 and related entries	1.05 ± 0.09	1.01 ± 0.085	1.01 ± 0.079	1.01 ± 0.088	1.03 ± 0.084	1.04 ± 0.099
CNDP2 (UniProt Q96KP4)	1.01 ± 0.053	1.01 ± 0.07	0.954 ± 0.059	0.964 ± 0.11	0.977 ± 0.065	0.971 ± 0.072
UniProt Q96F44 and related entries	1.01 ± 0.025	1.03 ± 0.062	0.982 ± 0.07	1.044 ± 0.0095	0.98 ± 0.057	0.974 ± 0.045
UniProt Q96FZ2	0.99 ± 0.047	1 ± 0.018	0.985 ± 0.025	1.02 ± 0.055	0.971 ± 0.057	0.977 ± 0.036
LYSMD1 (UniProt Q96S90)	0.989 ± 0.038	0.984 ± 0.036	1.01 ± 0.038	1 ± 0.022	0.949 ± 0.038	0.947 ± 0.026
UniProt Q96BU1 and related entries	1.04 ± 0.14	1 ± 0.14	1.01 ± 0.19	0.997 ± 0.21	0.969 ± 0.19	1.05 ± 0.096
PANX1 (UniProt Q96RD7)	0.96 ± 0.061	0.94 ± 0.046	0.947 ± 0.03	0.993 ± 0.055	0.929 ± 0.063	0.968 ± 0.091
RAB39B (UniProt Q96DA2)	1.06 ± 0.14	1.05 ± 0.15	1.08 ± 0.15	1 ± 0.18	1.06 ± 0.18	1 ± 0.12
COG3 (UniProt Q96JB2)	1.05 ± 0.16	0.986 ± 0.11	1.03 ± 0.12	0.957 ± 0.14	0.964 ± 0.043	0.989 ± 0.085
UniProt Q96MG7	1.01 ± 0.059	0.998 ± 0.034	1.01 ± 0.059	0.997 ± 0.061	1.02 ± 0.043	0.959 ± 0.053
UniProt Q96GJ1-2	1.18 ± 0.33	1.1 ± 0.13	1.22 ± 0.34	1.03 ± 0.29	1.12 ± 0.3	1.12 ± 0.091
UniProt Q96T21 and related entries	0.982 ± 0.028	0.969 ± 0.072	0.97 ± 0.082	0.974 ± 0.1	1.01 ± 0.052	1.04 ± 0.089
UniProt Q96RF0-2|Q96RF0 and related entries	1.06 ± 0.13	1.05 ± 0.093	1.07 ± 0.12	1.06 ± 0.11	1.04 ± 0.12	1.04 ± 0.088
NUDT11 (UniProt Q96G61)	1.01 ± 0.042	0.986 ± 0.034	0.975 ± 0.053	0.975 ± 0.063	1.01 ± 0.06	0.928 ± 0.025
IPO9 (UniProt Q96P70)	0.958 ± 0.0095	0.991 ± 0.014	0.934 ± 0.052	0.926 ± 0.02	0.91 ± 0.034	0.936 ± 0.014
UniProt Q96GY0	0.851 ± 0.12	0.867 ± 0.051	0.907 ± 0.023	0.927 ± 0.029	0.898 ± 0.059	0.891 ± 0.061
MCEE (UniProt Q96PE7)	0.952 ± 0.048	0.966 ± 0.024	0.93 ± 0.035	0.937 ± 0.069	0.896 ± 0.027	0.87 ± 0.058
UniProt Q96EM0	0.964 ± 0.015	1 ± 0.071	0.99 ± 0.057	0.957 ± 0.08	0.99 ± 0.12	0.996 ± 0.086
UniProt Q96D05 and related entries	0.932 ± 0.14	0.9585 ± 0.0053	0.943 ± 0.071	0.886 ± 0.013	0.842 ± 0.029	0.796 ± 0.2
UniProt Q96P50 and related entries	0.882 ± 0.049	0.996 ± 0.039	0.984 ± 0.04	0.99 ± 0.047	0.9762 ± 0.0034	1.062 ± 0.0011
